Values joined by “and” are separate entries in the source; they are usually repeats but may differ in a detail not shown here. Equal values may be shown once. The list shows a part of the results. This data set is noisy: repeats of one test often differ as much as different tests do.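 HEK293T cells were given each compound shortly before transfection with a reporter in which red mCherry is followed by the SARS-CoV-2 frameshift element and then GFP in the −1 frame, so GFP appears only after frameshifting.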
The compounds below were run on HEK293T (assay: percent viability (nuclei count) relative to control; higher = more viable cells). Settings: 10 µM; 24 h.

Row | SMILES | percent viability
1 | CC(C)(CO)[C@@H](O)C(=O)NCCC(=O)O [Pantothenic acid] | 164%
2 | CC(NCCC(c1ccccc1)c1ccccc1)c1ccccc1 (stereo not given) [fendiline] | 330%
3 | CN1CCC[C@H]1c1cccnc1 | 168%
4 | CN(C)CCOC(c1ccccc1)c1ccccc1.Cn1c(=O)c2[nH]c(Cl)nc2n(C)c1=O [dimenhydrinate] | 173%
5 | CC(C)C(N)C(=O)O (stereo not given) | 119%
6 | CC(c1cc2ccccc2s1)N(O)C(N)=O (stereo not given) [zileuton] | 257% and 142%
7 | C[n+]1cc2c3c(ccc2c2ccc4cc5c(cc4c21)OCO5)OCO3 [sanguinarium chloride] | 13.5%
8 | COc1ccccc1N1CCN(CC(O)COc2cccc3ccccc23)CC1 (stereo not given) [naftopidil] | 303% and 293%
9 | CCCCNC(=O)c1ccc(Cl)cc1O [buclosamide] | 272%
10 | CC(=O)c1ccc2c(c1)N(CCCN1CCN(CCO)CC1)c1ccccc1S2 | 134%
11 | CCN(CC)CCOC1(c2ccc(Cl)cc2)CCCCC1 [clofenciclan] | 182%
12 | CCCCCCCCCCCCCCCC[N+](C)(C)C [cetrimonium bromide] | 106%
13 | COCCCOc1cc(C[C@@H](C[C@H](N)[C@@H](O)C[C@H](C(=O)NCC(C)(C)C(N)=O)C(C)C)C(C)C)ccc1OC | 229%
14 | O=C(C[S+]([O-])Cc1ccco1)NC/C=C\COc1cc(CN2CCCCC2)ccn1 (stereo not given) [lafutidine] | 208%
15 | CCCCCC(=O)O[C@]1(C(C)=O)CC[C@H]2[C@@H]3CCC4=CC(=O)CC[C@@H]4[C@H]3CC[C@@]21C [gestonorone caproate] | 201%
16 | Nc1nc2c(ncn2COCCO)c(=O)[nH]1 | 286%
17 | CC(C)(C)c1ccc(C(O)CCCN2CCC(C(O)(c3ccccc3)c3ccccc3)CC2)cc1 (stereo not given) [terfenadine] | 233% and 303%
18 | OC(CCN1CCCC1)(c1ccccc1)C1CCCCC1 (stereo not given) [procyclidine] | 160%
19 | O=C1O[C@H](CO)[C@@H](O)[C@H](O)[C@H]1O | 254%
20 | CCOC(=O)Nc1ccc2c(c1)N(C(=O)CCN1CCOCC1)c1ccccc1S2 [moracizine] | 213%

A draw from above in order of count of non-hydrogen atoms, smallest number first:
Row | SMILES | percent viability
1 | CC(C)(CO)[C@@H](O)C(=O)NCCC(=O)O [Pantothenic acid] | 164%
16 | Nc1nc2c(ncn2COCCO)c(=O)[nH]1 | 286%
12 | CCCCCCCCCCCCCCCC[N+](C)(C)C [cetrimonium bromide] | 106%

(continued)

Row | SMILES | percent viability
21 | [O-][n+]1cccc(CO)c1 [mepiroxol] | 286%
22 | CCN(CC)CCOc1ccc2c(c1)C(=O)c1cc(OCCN(CC)CC)ccc1-2 [tilorone] | 204%
23 | CCCOC(=O)Cn1cc(I)c(=O)c(I)c1 [propyliodone] | 171%
24 | COCCCN1CCC(NC(=O)c2cc(Cl)c(N)c3c2OCC3)CC1 [prucalopride] | 150%
25 | CO[C@H]1/C=C/O[C@@]2(C)Oc3c(C)c(O)c4c(O)c(c(/C=N/N5CCN(C)CC5)c(O)c4c3C2=O)NC(=O)/C(C)=C\C=C\[C@H](C)[C@H](O)[C@@H](C)[C@@H](O)[C@@H](C)[C@H](OC(C)=O)[C@@H]1C | 140%
26 | N=C(N)c1ccc(OCCCCCOc2ccc(C(=N)N)cc2)cc1 [pentamidine] | 247% and 319%
27 | COc1cc(C(=O)NS(=O)(=O)c2ccccc2C)ccc1Cc1cn(C)c2ccc(NC(=O)OC3CCCC3)cc12 [zafirlukast] | 241%
28 | CCOCCn1c(N2CCCN(C)CC2)nc2ccccc21 [emedastine] | 303%
29 | CC(=O)[C@@]1(O)CC[C@H]2[C@@H]3CCC4=CC(=O)CC[C@]4(C)[C@H]3CC[C@@]21C [hydroxyprogesterone] | 187%
30 | CCN1CCCC1CNC(=O)c1cc(S(N)(=O)=O)ccc1OC (stereo not given) | 232%
31 | COc1ccc(C(=O)CC(=O)c2ccc(C(C)(C)C)cc2)cc1 [avobenzone] | 228%
32 | O=C(O)Cc1cc(I)c(Oc2ccc(O)c(I)c2)c(I)c1 [tiratricol] | 385%
33 | CO[C@@]1(NC(=O)CSCC#N)C(=O)N2C(C(=O)O)=C(CSc3nnnn3C)CS[C@@H]21 [Zefazone] | 276%
34 | C1CCN2C[C@@H]3C[C@@H](CN4CCCC[C@@H]34)[C@H]2C1 [(-)-Sparteine] | 87.7%
35 | CC(C)(C)CC(=O)OCC(=O)[C@@]12OC(C)(C)O[C@@H]1C[C@H]1[C@@H]3CCC4=CC(=O)C=C[C@]4(C)[C@@]3(F)[C@@H](O)C[C@@]12C [triamcinolone hexacetonide] | 151%
36 | OC[C@H]1O[C@@H](O[C@@H]2[C@@H](CO)OC(O)(CO)[C@H]2O)[C@H](O)[C@@H](O)[C@H]1O (mixture of isomers) [lactulose] | 175%
37 | CCOc1nc2cccc(C(=O)O)c2n1Cc1ccc(-c2ccccc2-c2nn[nH]n2)cc1 | 336%
38 | CC[C@H]1OC(=O)[C@H](C)[C@@H](O[C@H]2C[C@@](C)(OC)[C@@H](O)[C@H](C)O2)[C@H](C)[C@@H](O[C@@H]2O[C@H](C)C[C@H](N(C)C)[C@H]2O)[C@](C)(O)C[C@@H](C)CN(C)[C@H](C)[C@@H](O)[C@]1(C)O | 338%
39 | CC[N+](CC)(CC)CCOc1ccc(/C=C/c2ccccc2)cc1 [stilonium iodide] | 107%
40 | CCC(OC(N)=O)C1CCCCC1 (stereo not given) [procymate] | 227%
